Data published in paper PMC3084845.
Results are given in words; binding and its absence hold for the method and conditions named. In cells and extracts the contact can be indirect. Some entries that bind do so weakly or less than the wild type.

Chains of the proteins cited; added tags and fusions are not shown.
UniProt Q13118: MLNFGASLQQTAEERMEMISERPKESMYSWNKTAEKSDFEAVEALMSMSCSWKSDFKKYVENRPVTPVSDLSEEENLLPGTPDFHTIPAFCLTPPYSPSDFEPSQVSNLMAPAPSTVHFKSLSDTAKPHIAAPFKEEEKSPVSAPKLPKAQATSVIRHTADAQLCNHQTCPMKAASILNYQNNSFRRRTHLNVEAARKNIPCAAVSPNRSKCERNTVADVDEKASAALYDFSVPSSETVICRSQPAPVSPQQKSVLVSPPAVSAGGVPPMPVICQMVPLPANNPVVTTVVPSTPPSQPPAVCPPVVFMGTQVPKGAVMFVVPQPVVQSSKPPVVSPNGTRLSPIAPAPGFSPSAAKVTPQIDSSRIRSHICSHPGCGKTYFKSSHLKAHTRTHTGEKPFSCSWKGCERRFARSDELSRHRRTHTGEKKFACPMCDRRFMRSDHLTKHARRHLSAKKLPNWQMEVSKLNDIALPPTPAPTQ
UniProt Q08775: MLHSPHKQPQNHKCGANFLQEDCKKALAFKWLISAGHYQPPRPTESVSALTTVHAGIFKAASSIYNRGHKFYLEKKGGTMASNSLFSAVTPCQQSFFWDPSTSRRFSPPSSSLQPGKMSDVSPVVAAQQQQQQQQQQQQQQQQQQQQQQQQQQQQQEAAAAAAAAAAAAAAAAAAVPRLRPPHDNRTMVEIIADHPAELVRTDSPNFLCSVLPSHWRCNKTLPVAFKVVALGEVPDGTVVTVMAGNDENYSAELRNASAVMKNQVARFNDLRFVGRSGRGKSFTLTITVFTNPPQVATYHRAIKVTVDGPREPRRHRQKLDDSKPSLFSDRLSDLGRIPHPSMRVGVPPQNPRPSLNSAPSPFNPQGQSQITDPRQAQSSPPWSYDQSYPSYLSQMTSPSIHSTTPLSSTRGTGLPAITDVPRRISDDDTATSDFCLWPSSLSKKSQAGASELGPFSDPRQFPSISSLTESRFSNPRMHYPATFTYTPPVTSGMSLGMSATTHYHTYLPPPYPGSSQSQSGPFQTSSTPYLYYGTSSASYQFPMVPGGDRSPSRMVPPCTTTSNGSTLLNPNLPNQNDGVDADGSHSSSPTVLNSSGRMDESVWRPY

Legend:
[1] = molecular target: TGFβ inducible early gene-1 (TIEG1), full length (1-480 aa), Flag-tagged (UniProt Q13118); assay: co-IP; U2OS cells co-transfected with TIEG1 and Runx2 expression constructs for 24 hours, lysed in RIPA buffer; immunoprecipitated at 4°C overnight with rabbit IgG, Runx2 M-70 antibody or TIEG1 polyclonal antibody #992, protein G beads; western blotting with reciprocal antibodies
Runx2 = Runx2 (UniProt Q08775); assay: as above

For Runx2 (from UniProt Q08775 1-607), the binding [1] was “binds”.

In the case of “TGFβ inducible early gene-1 (TIEG1), full length (1-480 aa), Flag-tagged (from UniProt Q13118 1-480)”, the binding (Runx2) is reported as “binds”.
